# Reference: PubChem BioAssay (EPA / NIEHS)
# The shares of active, inactive and inconclusive entries below differ from those in the screen. Potencies of inconclusive entries are doubtful fits and often do not repeat. Activity calls are given as the source filed them. How the source made its calls: active means hit-call score of the fitted dose curve at least 0.9, where 1 is the maximum; inconclusive means response in the unintended direction; inactive means score below 0.9.
# Assay: ACEA_AR_agonist_AUC_viability: ACEA Biosciences xCELLigence Real-Time Cell Analysis on Androgen Receptor Agonism for Viability (AID 2283775);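 on AC50: viability read 80 hours after compound addition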
# Method in brief: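 Viability endpoint from xCELLigence impedance in 22Rv1 prostate cells at 80 h. Eight-point series, 100 uM maximum final.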
Compound,AC50,outcome
Cc1ccc(S(=O)(=O)NC(=O)NN2CCCCCC2)cc1,inconclusive: 64.7 nM,
CC(C)CCOC(=O)c1ccccc1,inconclusive: 644 nM,
C=C(C)C(=O)OCCOC1CC2CC1C1C=CCC21 (stereo not drawn),inconclusive: 3300 nM,
Cn1cnc2c1c(=O)[nH]c(=O)n2C,,inactive
COCCOCCOC,inconclusive: 0.616 nM,
CCOCCOCCOCCO,,inactive
CC(C)(C)C1CCC(O)CC1 (stereo not drawn),,inactive
CC(=O)OCCOCCOCCOC(C)=O,inconclusive: 50000 nM,
CC(C)(C#N)c1cc(Cn2cncn2)cc(C(C)(C)C#N)c1,inconclusive: 217 nM,
C/C=C/C=C/C(=O)O,inconclusive: 10300 nM,
CCc1nn(C2CCCCC2)c2cc(C3(C#N)CCC(C(=O)O)CC3)ccc12 (stereo not drawn),inconclusive: 91.5 nM,
CC(C)CCCCCCOC(=O)c1ccc(C(=O)OCCCCCCC(C)C)c(C(=O)OCCCCCCC(C)C)c1,inconclusive: 31.1 nM,
O=C1OC[C@H](Cc2cccc(O)c2)[C@H]1Cc1cccc(O)c1,inconclusive: 82.4 nM,
CCCCCCCC(=O)N(C)C,inconclusive: 13.8 nM,
CCCCCC(C)=O,,inactive
NS(=O)(=O)O,inconclusive: 152 nM,
COc1cc(S(=O)(=O)O)c(C)cc1N=Nc1c(O)ccc2cc(S(=O)(=O)O)ccc12,inconclusive: 6.15 nM,
Cc1occc(=O)c1O,inconclusive: 52000 nM,
CC(=O)Nc1cc(S(=O)(=O)O)cc2cc(S(=O)(=O)O)c(N=Nc3ccccc3)c(O)c12,inconclusive: 296 nM,

# Part of the list above, reformatted.
Compound | AC50 | outcome
CC(C)(C)C1CCC(O)CC1 (stereo not drawn) |  | inactive
NS(=O)(=O)O | inconclusive: 152 nM | 

# Carrying on.

Compound,AC50,outcome
CCCCC(CC)CO (stereo not drawn),inconclusive: 50000 nM,
Cc1cccc(C)c1,inconclusive: 172 nM,
CC(C)=CCC/C(C)=C\CO,inconclusive: 50000 nM,
NNC(=O)c1ccncc1,inconclusive: 50000 nM,
C=C(C)C(=O)OCCC(C)OC(=O)C(=C)C (stereo not drawn),inconclusive: 236 nM,
CCNc1nc(N)nc(Cl)n1,inconclusive: 23.3 nM,
CC(=O)OC(C)c1ccccc1 (stereo not drawn),,inactive
Cc1nc(C)nc(N2C[C@@H](C)N(c3ccnc([C@@H](C)O)n3)[C@@H](C)C2)n1,,inactive
CO[C@H]1/C=C/O[C@@]2(C)Oc3c(C)c(O)c4c(O)c(c(/C=N/N5CCN(C)CC5)c(O)c4c3C2=O)NC(=O)/C(C)=C\C=C\[C@H](C)[C@H](O)[C@@H](C)[C@@H](O)[C@@H](C)[C@H](OC(C)=O)[C@@H]1C,inconclusive: 20.9 nM,
NC(N)=O,,inactive
CC(=O)C1C(=O)C=C(C)OC1=O (stereo not drawn),,inactive
CCc1cccc(O)c1,,inactive
COc1ccccc1O,inconclusive: 126 nM,
CC(=O)OCCC(C)C,,inactive
CC(=O)c1ccccc1,,inactive
Oc1ccccc1,inconclusive: 54.6 nM,
O=C1O[C@H]([C@H](O)CO)C(O)=C1O,,inactive
Cc1ccc2ncccc2c1,,inactive
CC(C)c1ccc(C(=O)N=C(N)N)cc1S(C)(=O)=O,,inactive
